Test results: article PMC9274230

Protein sequences, listed by entry. Tags and fused reporters are not part of them. Lines headed by an entry give the natural chain unless they say otherwise; changes in a name come on top.
UniProt O95863: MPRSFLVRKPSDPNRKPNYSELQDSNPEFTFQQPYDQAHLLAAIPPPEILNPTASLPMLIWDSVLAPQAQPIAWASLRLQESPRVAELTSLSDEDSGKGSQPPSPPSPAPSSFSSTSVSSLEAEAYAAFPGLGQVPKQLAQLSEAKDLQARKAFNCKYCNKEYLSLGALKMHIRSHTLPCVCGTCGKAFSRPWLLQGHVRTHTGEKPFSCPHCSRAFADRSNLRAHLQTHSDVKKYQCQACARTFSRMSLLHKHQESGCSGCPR
UniProt O43707: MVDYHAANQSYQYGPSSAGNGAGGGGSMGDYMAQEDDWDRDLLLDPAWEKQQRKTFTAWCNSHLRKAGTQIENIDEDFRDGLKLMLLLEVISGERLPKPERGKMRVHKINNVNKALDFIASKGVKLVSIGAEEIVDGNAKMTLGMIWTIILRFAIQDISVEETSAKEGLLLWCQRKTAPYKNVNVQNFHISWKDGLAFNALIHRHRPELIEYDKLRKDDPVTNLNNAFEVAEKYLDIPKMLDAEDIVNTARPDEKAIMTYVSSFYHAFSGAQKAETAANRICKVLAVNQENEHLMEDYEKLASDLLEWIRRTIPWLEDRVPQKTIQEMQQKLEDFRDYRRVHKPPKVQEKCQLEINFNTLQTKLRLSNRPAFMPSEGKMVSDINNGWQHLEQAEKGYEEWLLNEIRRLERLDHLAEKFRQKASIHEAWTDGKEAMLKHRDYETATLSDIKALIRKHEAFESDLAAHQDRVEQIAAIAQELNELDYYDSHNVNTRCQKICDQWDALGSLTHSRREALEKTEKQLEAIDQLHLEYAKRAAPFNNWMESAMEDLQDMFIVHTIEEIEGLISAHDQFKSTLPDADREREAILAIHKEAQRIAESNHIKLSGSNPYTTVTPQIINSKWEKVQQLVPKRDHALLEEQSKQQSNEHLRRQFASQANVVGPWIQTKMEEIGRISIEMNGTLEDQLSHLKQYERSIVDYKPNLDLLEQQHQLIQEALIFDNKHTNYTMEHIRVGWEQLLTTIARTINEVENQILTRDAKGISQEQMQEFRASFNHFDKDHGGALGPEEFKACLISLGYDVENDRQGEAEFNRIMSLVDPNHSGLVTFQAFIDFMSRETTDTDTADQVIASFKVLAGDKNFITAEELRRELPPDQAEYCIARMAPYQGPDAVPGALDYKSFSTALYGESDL
UniProt P02042: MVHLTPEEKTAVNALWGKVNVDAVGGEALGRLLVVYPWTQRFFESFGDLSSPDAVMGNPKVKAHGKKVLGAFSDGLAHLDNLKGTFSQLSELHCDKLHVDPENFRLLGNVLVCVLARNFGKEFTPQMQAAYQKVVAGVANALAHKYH
UniProt Q99729: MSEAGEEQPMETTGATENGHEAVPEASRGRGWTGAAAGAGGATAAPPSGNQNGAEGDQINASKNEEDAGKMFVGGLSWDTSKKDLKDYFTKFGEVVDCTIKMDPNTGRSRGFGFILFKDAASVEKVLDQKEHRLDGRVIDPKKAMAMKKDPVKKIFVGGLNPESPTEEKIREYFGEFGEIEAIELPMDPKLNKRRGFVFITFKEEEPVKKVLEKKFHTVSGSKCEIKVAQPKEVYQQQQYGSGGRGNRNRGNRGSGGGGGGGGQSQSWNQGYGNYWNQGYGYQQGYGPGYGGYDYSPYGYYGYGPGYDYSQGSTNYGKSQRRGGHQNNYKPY
UniProt P35580: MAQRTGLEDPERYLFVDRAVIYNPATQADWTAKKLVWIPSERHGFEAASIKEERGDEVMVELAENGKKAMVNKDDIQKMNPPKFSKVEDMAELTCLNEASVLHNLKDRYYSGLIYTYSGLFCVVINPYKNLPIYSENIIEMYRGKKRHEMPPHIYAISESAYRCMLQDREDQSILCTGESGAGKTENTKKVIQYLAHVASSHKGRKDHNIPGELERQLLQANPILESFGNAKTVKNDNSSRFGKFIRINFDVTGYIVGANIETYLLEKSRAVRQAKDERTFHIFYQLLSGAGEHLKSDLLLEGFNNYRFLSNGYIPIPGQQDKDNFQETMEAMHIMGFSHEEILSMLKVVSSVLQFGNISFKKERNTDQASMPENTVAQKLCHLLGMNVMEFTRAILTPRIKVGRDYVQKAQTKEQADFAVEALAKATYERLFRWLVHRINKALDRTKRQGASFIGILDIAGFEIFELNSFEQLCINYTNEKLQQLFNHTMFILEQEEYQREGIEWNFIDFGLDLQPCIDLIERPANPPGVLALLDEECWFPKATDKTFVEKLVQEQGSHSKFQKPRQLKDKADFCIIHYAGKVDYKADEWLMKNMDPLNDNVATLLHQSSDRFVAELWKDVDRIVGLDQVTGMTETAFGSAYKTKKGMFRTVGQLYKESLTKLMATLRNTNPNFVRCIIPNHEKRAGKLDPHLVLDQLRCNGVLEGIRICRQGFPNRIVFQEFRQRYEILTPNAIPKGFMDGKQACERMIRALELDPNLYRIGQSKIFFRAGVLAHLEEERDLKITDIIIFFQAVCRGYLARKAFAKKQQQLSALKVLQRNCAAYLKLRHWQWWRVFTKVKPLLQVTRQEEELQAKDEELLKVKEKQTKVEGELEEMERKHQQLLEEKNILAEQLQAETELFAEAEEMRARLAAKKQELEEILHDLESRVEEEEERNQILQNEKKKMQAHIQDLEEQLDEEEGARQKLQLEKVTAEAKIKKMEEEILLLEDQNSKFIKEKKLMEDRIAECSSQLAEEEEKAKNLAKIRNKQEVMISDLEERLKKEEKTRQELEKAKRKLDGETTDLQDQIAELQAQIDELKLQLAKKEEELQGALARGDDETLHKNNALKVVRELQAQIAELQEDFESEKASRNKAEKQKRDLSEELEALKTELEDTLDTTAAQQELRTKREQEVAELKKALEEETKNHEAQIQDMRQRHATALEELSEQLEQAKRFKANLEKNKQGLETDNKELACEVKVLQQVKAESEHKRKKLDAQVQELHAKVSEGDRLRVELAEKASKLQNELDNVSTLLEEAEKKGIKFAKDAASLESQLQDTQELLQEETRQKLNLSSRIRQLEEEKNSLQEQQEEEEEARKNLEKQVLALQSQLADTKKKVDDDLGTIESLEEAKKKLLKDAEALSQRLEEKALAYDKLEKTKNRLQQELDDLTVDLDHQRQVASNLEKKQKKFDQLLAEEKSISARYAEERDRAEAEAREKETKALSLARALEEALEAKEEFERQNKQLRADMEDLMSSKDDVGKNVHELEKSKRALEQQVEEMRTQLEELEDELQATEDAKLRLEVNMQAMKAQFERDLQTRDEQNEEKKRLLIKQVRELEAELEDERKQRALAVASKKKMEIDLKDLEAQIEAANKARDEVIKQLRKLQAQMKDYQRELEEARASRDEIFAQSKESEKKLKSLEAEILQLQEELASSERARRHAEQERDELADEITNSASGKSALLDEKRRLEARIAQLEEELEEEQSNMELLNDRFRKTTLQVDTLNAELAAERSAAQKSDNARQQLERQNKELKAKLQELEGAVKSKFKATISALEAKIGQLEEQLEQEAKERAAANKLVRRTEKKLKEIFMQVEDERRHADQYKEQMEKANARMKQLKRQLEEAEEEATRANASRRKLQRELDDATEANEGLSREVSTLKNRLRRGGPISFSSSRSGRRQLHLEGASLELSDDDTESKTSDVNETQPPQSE
UniProt P67809: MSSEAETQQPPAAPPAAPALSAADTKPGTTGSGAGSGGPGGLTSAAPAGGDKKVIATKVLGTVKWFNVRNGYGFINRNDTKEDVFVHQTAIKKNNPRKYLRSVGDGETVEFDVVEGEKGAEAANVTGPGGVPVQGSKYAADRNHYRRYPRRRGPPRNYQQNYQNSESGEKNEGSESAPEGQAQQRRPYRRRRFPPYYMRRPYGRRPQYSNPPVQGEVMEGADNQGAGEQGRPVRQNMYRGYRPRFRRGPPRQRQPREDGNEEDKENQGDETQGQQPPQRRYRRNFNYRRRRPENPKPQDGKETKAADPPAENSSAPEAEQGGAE
UniProt O14983: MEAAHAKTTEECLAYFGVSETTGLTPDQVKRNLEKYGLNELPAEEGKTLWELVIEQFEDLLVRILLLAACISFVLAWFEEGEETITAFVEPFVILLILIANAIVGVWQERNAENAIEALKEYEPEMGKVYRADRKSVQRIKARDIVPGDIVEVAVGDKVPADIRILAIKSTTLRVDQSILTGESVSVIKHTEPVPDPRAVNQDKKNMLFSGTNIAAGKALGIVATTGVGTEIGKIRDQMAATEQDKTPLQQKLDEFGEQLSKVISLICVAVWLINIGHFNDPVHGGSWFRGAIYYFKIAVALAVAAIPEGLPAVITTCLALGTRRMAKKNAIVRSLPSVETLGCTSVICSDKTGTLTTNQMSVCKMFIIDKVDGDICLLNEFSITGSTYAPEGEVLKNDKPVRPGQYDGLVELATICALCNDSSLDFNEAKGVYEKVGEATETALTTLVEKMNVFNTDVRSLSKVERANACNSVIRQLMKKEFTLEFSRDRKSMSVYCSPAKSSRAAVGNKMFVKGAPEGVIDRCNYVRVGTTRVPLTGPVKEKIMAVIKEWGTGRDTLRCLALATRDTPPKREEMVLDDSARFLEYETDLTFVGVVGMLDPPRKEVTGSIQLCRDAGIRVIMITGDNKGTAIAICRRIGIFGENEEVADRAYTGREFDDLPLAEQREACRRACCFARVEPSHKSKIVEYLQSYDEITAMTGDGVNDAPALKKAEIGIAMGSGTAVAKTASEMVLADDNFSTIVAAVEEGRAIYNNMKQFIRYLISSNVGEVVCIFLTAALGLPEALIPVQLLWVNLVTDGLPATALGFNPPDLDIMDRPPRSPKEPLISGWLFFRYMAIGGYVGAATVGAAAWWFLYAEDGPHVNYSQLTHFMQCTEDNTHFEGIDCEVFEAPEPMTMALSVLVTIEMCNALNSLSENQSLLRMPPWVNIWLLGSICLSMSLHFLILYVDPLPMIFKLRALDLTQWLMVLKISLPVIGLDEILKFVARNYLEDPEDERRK
UniProt P07477: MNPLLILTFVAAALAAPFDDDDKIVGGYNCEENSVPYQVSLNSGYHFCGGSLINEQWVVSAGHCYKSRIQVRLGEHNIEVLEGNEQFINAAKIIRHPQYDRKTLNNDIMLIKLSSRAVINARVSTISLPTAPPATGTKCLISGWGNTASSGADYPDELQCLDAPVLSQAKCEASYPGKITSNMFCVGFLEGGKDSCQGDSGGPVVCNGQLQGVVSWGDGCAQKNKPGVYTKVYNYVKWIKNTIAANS

target: Snail (human (endogenous in primary ectopic endometrial cells)) (UniProt O95863); experiment: affinity purification with mass spectrometry; endogenous snail precipitated with snail antibody (3879, Cell Signaling Technology) from lysate of primary ectopic endometrial cells (IP-MS Cell Lysis Buffer, overnight at 4°C; Protein A/G magnetic beads, 1 hour at room temperature); eluate digested with trypsin, LC-MS (TripleTOF 5600), proteins with unused ≥ 1.3; control group and group treated with 0.1 μm sunitinib for 24 hours

binding, binds:
Alpha-actinin-4 (from UniProt O43707 1-911)
Hemoglobin subunit delta (from UniProt P02042 1-147)
Heterogeneous nuclear ribonucleoprotein A/B (from UniProt Q99729 1-332)
Myosin-10 (from UniProt P35580 1-1976)
Nuclease-sensitive element-binding protein 1 (from UniProt P67809 1-324)
Sarcoplasmic/endoplasmic reticulum calcium ATPase 1 (from UniProt O14983 1-1001)
Trypsin-1 (from UniProt P07477)

Results are given in words; binding and its absence hold for the method and conditions named. In cells and extracts the contact can be indirect. A yes stands for co-enrichment or nearness to the bait. Other partners may have been found.
